Source: PubChem BioAssay AID236 (DTP/NCI, 2004)
The list does not hold the whole screen: it gathers tests that were run many times, whatever their T/C, doses with no T/C, and many T/C values between a quarter and a half above the control. Further doses and runs are listed elsewhere. T/C gives the treated animals as a percentage of the vehicle group. Some entries give survivors of the animals treated and no T/C: the source files T/C as zero there, which appears to mark a toxic dose or a test without result, not a measured value. Some doses without a T/C left all or most animals alive at the check, yet need not have been tolerated: survival well below the control is almost never listed, so the zero probably covers shortened survival too. Counts of survivors are from the toxicity check (mostly the fifth day) where no day follows; animals may have died later. Schedule codes are those of the source, read here as Q, the interval in days (D) or hours (H), X, the number of doses. Where survival is the endpoint, this PubChem deposit counts one and a half times the control or more as active, and values a quarter to a half above the control carry no call in these data; other NCI protocols may use other cut-offs. Some doses were run more than once; their values stand side by side, smallest first. Some T/C values carry the count of animals alive at the toxicity check (mostly the fifth day); where none is given, no animal had died by that day.

Test system: AK4 lymphoid leukemia ip, C3AKF1 mice, survival
Test: NCI In Vivo Anticancer Drug Screen. Data for tumor model AK4 Lymphoid Leukemia (intraperitoneal) in C3AKF1 (CHKRF1) mice
Conditions: T/C endpoint: median survival time, higher T/C = longer survival
Procedure: The antitumor activity of compounds was measured in mice bearing transplantable tumors. Survival or tumor size were measured and the results are expressed as the measurement made in the treated group (T) divided by the measurement made in the vehicle treated control group (C). The tumor model used in this assay is AK4 Lymphoid Leukemia (intraperitoneal) in C3AKF1 (CHKRF1) mice

[1] = dose: 500.0 mg/kg/injection, schedule: Q01DX010 (ip), vehicle: saline
[2] = dose: 200.0 mg/kg/injection, schedule: Q01DX010 (ip), vehicle: saline
[3] = dose: 8.0 mg/kg/injection, schedule: Q01DX010 (ip), vehicle: saline
[4] = dose: 1000.0 micrograms/kg/injection, schedule: Q01DX010 (ip), vehicle: saline
[5] = dose: 12.5 mg/kg/injection, schedule: Q01DX010 (ip), vehicle: saline
[6] = dose: 25.0 mg/kg/injection, schedule: Q01DX010 (ip), vehicle: saline
[7] = dose: 50.0 mg/kg/injection, schedule: Q01DX010 (ip), vehicle: saline
[8] = dose: 100.0 mg/kg/injection, schedule: Q01DX010 (ip), vehicle: saline

In the case of `Nc1c(Br)cc2c(c1Br)Cc1cc([N+](=O)[O-])ccc1-2`, the survivor count [1] is reported as 6 of 6.
In the case of `CCOC(N)=O`, the T/C [1] is reported as 131 and 142 % of control and the T/C (dose: 1000.0 mg/kg/injection, schedule: Q01DX010 (ip), vehicle: saline) is reported as 128 % of control [5 of 6 alive].
For `O=[n+]1c2c(n([O-])c3ccccc31)-c1cccc3cccc-2c13`, the survivor count [2] was 6 of 6.
For `C#CCN(C)Cc1ccccc1`, the survivor count (dose: 400.0 mg/kg/injection, schedule: Q01DX010 (ip), vehicle: saline) was 0 of 6.
With `Nc1nc(F)nc2c1ncn2C1OC(CO)C(O)C1O` (centres undefined) the survivor count [3] was 6 of 6 and the survivor count (dose: 16.0 mg/kg/injection, schedule: Q01DX010 (ip), vehicle: saline) was 0 of 6.
`CSCS(=O)C[C@H](CO)NC(=O)/C=C/c1c(C)[nH]c(=O)[nH]c1=O` (some centres undefined) was tested, and the survivor count [4] was 6 of 6.
With `O=P1(N(CCCl)CCCl)NCCCO1` (centres undefined) the T/C (dose: 11.3 mg/kg/injection, schedule: Q01DX010 (ip), vehicle: saline) was 130 % of control.
With `O=C(Nc1ccc(C2=NCCN2)cc1)c1ccc(C(=O)Nc2ccc(C3=NCCN3)cc2)c([N+](=O)[O-])c1` the survivor count (dose: 6.0 mg/kg/injection, schedule: Q01DX010 (ip), vehicle: saline) was 0 of 6.
`O=C(Nc1ccc(C2=NCCN2)cc1)c1cccc(C(=O)Nc2ccc(C3=NCCN3)cc2)c1` was tested, and the T/C [3] was 130 % of control.
`CN(N=O)C(N)=O` was tested, and the T/C (dose: 5.0 mg/kg/injection, schedule: Q01DX010 (ip), vehicle: saline) was 143 % of control.
For `C1CN1c1nc(N2CC2)nc(N2CC2)n1`, the survivor count (dose: 2.0 mg/kg/injection, schedule: Q01DX010 (ip), vehicle: saline) was 0 of 6.
`O=C(O)CCCc1ccc(N(CCCl)CCCl)cc1` was tested, and the T/C [5] was 127 % of control and the survivor count [6] was 0 of 6.
With `COc1cc(-c2ccc(Nc3ccccc3C(=O)O)c(OC)c2)ccc1Nc1ccccc1C(=O)O` the T/C [7] was 125 [6 of 7 alive] and 133 % of control, the T/C [8] was 127 % of control [5 of 6 alive] and the survivor count [2] was 0 of 6.
In the case of `CS(=O)(=O)OCCC(=O)N1CCN(C(=O)CCOS(C)(=O)=O)CC1`, the T/C [6] is reported as 133 % of control, the T/C [7] is reported as 133 and 144 % of control and the T/C [8] is reported as 144 % of control.
With `CC(=O)O[C@]1(C(C)=O)CC[C@H]2[C@@H]3C[C@H](C)C4=CC(=O)C=C[C@]4(C)[C@@]3(F)[C@@H](O)C[C@@]21C` the survivor count (dose: 12.5 mg/kg/injection, schedule: Q01DX010 (sc), vehicle: steroid suspending solution) was 6 of 6, the survivor count (dose: 25.0 mg/kg/injection, schedule: Q01DX010 (sc), vehicle: steroid suspending solution) was 6 of 6 and the survivor count (dose: 50.0 mg/kg/injection, schedule: Q01DX010 (sc), vehicle: steroid suspending solution) was 6 of 6.
With `CC(=O)NC1=C(N2CC2)C(=O)C(NC(C)=O)=C(N2CC2)C1=O` the survivor count (dose: 4.0 mg/kg/injection, schedule: Q01DX010 (ip), vehicle: saline) was 6 of 6 and the T/C [4] was 144 % of control.
For `N=[N+]=CC(=O)OCC(N)C(=O)O` (centres undefined), the T/C (dose: 3.13 mg/kg/injection, schedule: Q01DX010 (ip), vehicle: saline) was 130 % of control, the T/C (dose: 6.25 mg/kg/injection, schedule: Q01DX010 (ip), vehicle: saline) was 127 and 140 % of control and the T/C [5] was 130 % of control.
